Each structure is given as a SMILES string. Structures were worked out from names or drawings and are uncertain.

Amino acid sequences for entries named in this document (tags omitted).
UniProt Q99720, whole entry: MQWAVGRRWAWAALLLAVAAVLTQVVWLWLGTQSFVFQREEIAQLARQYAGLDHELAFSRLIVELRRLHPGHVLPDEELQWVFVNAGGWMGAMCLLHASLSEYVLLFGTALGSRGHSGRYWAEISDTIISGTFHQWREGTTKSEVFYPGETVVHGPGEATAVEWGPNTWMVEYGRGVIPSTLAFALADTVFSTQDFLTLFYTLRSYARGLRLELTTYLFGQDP

The assay has as its target Sigma1 (Homo sapiens, UniProt Q99720). Description: Sigma1 binding, Ki. To be noted: read-out: Sigma1, Ki.

In general, Ki refers to the equilibrium dissociation constant of an inhibitor or competing ligand from its target. For `COc1cc(NC(=N)NCCC(C)(C)Oc2ccc(C(F)(F)F)cc2)ncc1C#N`, the Ki came out at 14 nM.

The values are drawn from patent US12582619B2 (priority 2020, dated 2026).
